{"source": "the supplement of paper PMC7752906", "note": "Counter-ions that a name gives are not always drawn. The list shows a part of the results. Single values are uncertain here, since repeats match poorly.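 Wells held roughly 40 S. mansoni schistosomula, imaged in bright field over time against wells given 0.1% DMSO. The paper defines hits as drugs with a Mahalanobis distance of at least 2.47, three standard deviations above the DMSO control mean. Degeneracy is the proportion of worms classified as opaque.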"}
{"test_system": "Schistosoma mansoni schistosomula", "assay": "Mahalanobis distance of static-rate-frequency phenotype descriptors from DMSO controls (dimensionless); higher = stronger phenotypic change versus DMSO", "conditions": "10 µM; 72 h"}
{"smiles": "O=C(O)c1cc(O)c(O)c(O)c1", "note": "[Gallic Acid]", "Mahalanobis distance": "inactive: 1.7"}
{"smiles": "CCN(CC)C(=O)N1CCN(C)CC1", "note": "[Diethylcarbamazine]", "Mahalanobis distance": "inactive: 1.26"}
{"smiles": "COc1ccc(-n2nc(CCC(=O)N(C)O)cc2-c2ccc(Cl)cc2)cc1", "note": "[Tepoxalin]", "Mahalanobis distance": "active: 2.58"}
{"smiles": "O=P(O)(O)C(O)(Cc1cccnc1)P(=O)(O)O", "note": "[Risedronate Sodium]", "Mahalanobis distance": "inactive: 1.25"}
{"smiles": "CC(C)(Oc1ccc(C2CC2(Cl)Cl)cc1)C(=O)O", "note": "(stereo not given) [Ciprofibrate]", "Mahalanobis distance": "active: 2.66"}
{"smiles": "CC1=C(C(=O)O)N2C(=O)[C@@H](NC(=O)[C@H](N)c3ccc(O)cc3)[C@H]2SC1", "note": "[Cefadroxil]", "Mahalanobis distance": "inactive: 1.51"}
{"smiles": "NC(=O)C1(N2CCCCC2)CCN(CCCC(=O)c2ccc(F)cc2)CC1", "note": "[Pipamperone]", "Mahalanobis distance": "inactive: 1.61"}
{"smiles": "NC(=O)c1cccnc1", "note": "[Niacinamide]", "Mahalanobis distance": "inactive: 2.45"}
{"smiles": "Nc1nccs1", "note": "[Aminothiazole]", "Mahalanobis distance": "inactive: 2.16"}
{"smiles": "Cn1c(=O)c2c(ncn2CC(O)CO)n(C)c1=O", "note": "(stereo not given) [Dyphylline]", "Mahalanobis distance": "inactive: 1.88"}
{"smiles": "CCCc1nc(C(C)(C)O)c(C(=O)OCc2oc(=O)oc2C)n1Cc1ccc(-c2ccccc2-c2nnn[nH]2)cc1", "note": "[Olmesartan Medoxomil]", "Mahalanobis distance": "active: 2.53"}
{"smiles": "O=C(O)CCc1nc2ccccc2[nH]1", "note": "[Procodazole]", "Mahalanobis distance": "inactive: 1.95"}
{"smiles": "CC[C@]12CCCN3CCc4c(n(c5ccccc45)[C@@](O)(C(=O)OC)C1)[C@@H]32", "note": "[Vincamine]", "Mahalanobis distance": "inactive: 1.54"}
{"smiles": "CCC(C)(C)c1ccc(CC(C)CN2C[C@@H](C)O[C@@H](C)C2)cc1", "note": "(stereo not given in full) [Amorolfine]", "Mahalanobis distance": "active: 2.52"}
{"smiles": "CC(CCc1ccc(O)cc1)NCCc1ccc(O)c(O)c1", "note": "(stereo not given) [Dobutamine]", "Mahalanobis distance": "inactive: 1.56"}
{"smiles": "CCN1CCC[C@H]1CNC(=O)c1cc(S(N)(=O)=O)ccc1OC", "note": "[Levosulpiride]", "Mahalanobis distance": "inactive: 1.62"}
{"smiles": "Nc1ccc(S(N)(=O)=O)cc1", "note": "[Sulfanilamide]", "Mahalanobis distance": "inactive: 2.21"}
{"smiles": "O=C(O)[C@@H](S)[C@@H](S)C(=O)O", "note": "[Succimer]", "Mahalanobis distance": "inactive: 1.8"}
{"smiles": "CC(C)c1nc(CN(C)C(=O)N[C@H](C(=O)N[C@@H](Cc2ccccc2)C[C@H](O)[C@H](Cc2ccccc2)NC(=O)OCc2cncs2)C(C)C)cs1", "note": "[Ritonavir]", "Mahalanobis distance": "active: 2.55"}
{"smiles": "CC(C)[C@H]1CC[C@H](C(=O)N[C@H](Cc2ccccc2)C(=O)O)CC1", "note": "[Nateglinide]", "Mahalanobis distance": "inactive: 1.29"}
{"smiles": "CC(=O)Oc1cccc(C(=O)O)c1OC(C)=O", "note": "[Dipyrocetyl]", "Mahalanobis distance": "inactive: 2.28"}
{"smiles": "CC1CCc2cc(F)cc3c(=O)c(C(=O)O)cn1c23", "note": "(stereo not given) [Flumequine]", "Mahalanobis distance": "inactive: 2.35"}
{"smiles": "Nc1nc(N)nc(-c2cc(Cl)ccc2Cl)n1", "note": "[Irsogladine Maleate]", "Mahalanobis distance": "inactive: 1.88"}
{"smiles": "CCN1CCCC1CNC(=O)c1cc(S(=O)(=O)CC)c(N)cc1OC", "note": "(stereo not given) [Amisulpride]", "Mahalanobis distance": "inactive: 1.94"}
{"smiles": "S=P(N1CC1)(N1CC1)N1CC1", "note": "[Thiotepa]", "Mahalanobis distance": "inactive: 1.59"}
{"smiles": "O=C(c1ccc(OCCN2CCCCC2)cc1)c1c(-c2ccc(O)cc2)sc2cc(O)ccc12", "note": "[Raloxifene]", "Mahalanobis distance": "inactive: 1.71"}
{"smiles": "CCOC(=O)C1=C(C)NC(C)=C(C(=O)OC)C1c1cccc([N+](=O)[O-])c1", "note": "(stereo not given) [Nitrendipine]", "Mahalanobis distance": "inactive: 1.78"}
{"smiles": "CCn1cc(C(=O)O)c(=O)c2cc(F)c(N3CCNCC3)cc21", "note": "[Norfloxacin]", "Mahalanobis distance": "inactive: 1.79"}
{"smiles": "CN(C)CCC(c1ccc(Cl)cc1)c1ccccn1", "note": "(stereo not given) [Chlorpheniramine]", "Mahalanobis distance": "inactive: 2.41"}
{"smiles": "COc1cc(N)c(Cl)cc1C(=O)NC1CCN(CCCOc2ccc(F)cc2)CC1OC", "note": "(stereo not given) [Cisapride]", "Mahalanobis distance": "active: 2.85"}
{"smiles": "CCC(=O)NCC[C@@H]1CCc2ccc3c(c21)CCO3", "note": "[Ramelteon]", "Mahalanobis distance": "inactive: 1.2"}
{"smiles": "Cn1c(=O)c2c(ncn2C)n(C)c1=O", "note": "[Caffeine]", "Mahalanobis distance": "inactive: 1.87"}
{"smiles": "Cc1c(OCC(F)(F)F)ccnc1C[S+]([O-])c1nc2ccccc2[nH]1", "note": "(stereo not given) [Lansoprazole]", "Mahalanobis distance": "active: 2.5"}
{"smiles": "COc1ccc2cc1Oc1ccc(cc1)C[C@H]1c3c(cc4c(c3Oc3cc5c(cc3OC)CCN(C)[C@@H]5C2)OCO4)CCN1C", "note": "[cepharanthine]", "Mahalanobis distance": "inactive: 2.28"}
{"smiles": "O=C(O[C@@H]1C[C@@H]2C[C@H]3C[C@H](C1)N2CC3=O)c1c[nH]c2ccccc12", "note": "[Dolasetron]", "Mahalanobis distance": "inactive: 2.31"}
{"smiles": "CC(C)(C)NC(=O)[C@@H]1CN(Cc2cccnc2)CCN1C[C@@H](O)C[C@@H](Cc1ccccc1)C(=O)N[C@H]1c2ccccc2C[C@H]1O", "note": "[Indinavir]", "Mahalanobis distance": "inactive: 1.68"}
{"smiles": "CN(C)CC[C@@H](c1ccc(Cl)cc1)c1ccccn1", "note": "[Dexchlorpheniramine]", "Mahalanobis distance": "inactive: 1.51"}
{"smiles": "COC(=O)C(N)CS", "note": "(stereo not given) [Mecysteine Hydrochloride]", "Mahalanobis distance": "inactive: 1.95"}
{"smiles": "CC(N)C12CC3CC(CC(C3)C1)C2", "note": "(stereo not given) [Rimantadine Hydrochloride]", "Mahalanobis distance": "inactive: 2.41"}
{"smiles": "CC(N)C12CC3CC(CC(C3)C1)C2", "note": "(stereo not given) [Rimantadine]", "Mahalanobis distance": "active: 2.51"}
{"smiles": "CN(C)CCOC(=O)COc1ccc(Cl)cc1", "note": "[Meclofenoxate]", "Mahalanobis distance": "inactive: 1.74"}
{"smiles": "Brc1c(NC2=NCCN2)ccc2nccnc12", "Mahalanobis distance": "active: 2.79"}
{"smiles": "OC(CCN1CCCCC1)(c1ccccc1)C1CCCCC1", "note": "(stereo not given) [Trihexyphenidyl]", "Mahalanobis distance": "active: 2.61"}
{"smiles": "Cc1ccc2c(Cl)cc(Cl)c(O)c2n1", "note": "[Chlorquinaldol]", "Mahalanobis distance": "inactive: 1.57"}
{"smiles": "N=C(N)N/N=C/c1c(Cl)cccc1Cl", "note": "[Guanabenz]", "Mahalanobis distance": "inactive: 2.31"}
{"smiles": "CCCc1nc(C(C)(C)O)c(C(=O)O)n1Cc1ccc(-c2ccccc2-c2nnn[nH]2)cc1", "note": "[Olmesartan]", "Mahalanobis distance": "active: 4.54"}
{"smiles": "O=C(OCc1ccccc1)c1ccccc1", "note": "[Benzyl Benzoate]", "Mahalanobis distance": "active: 3.34"}
{"smiles": "CC(Oc1ccccc1)C(=O)N[C@@H]1C(=O)N2[C@@H]1SC(C)(C)[C@@H]2C(=O)O", "note": "(stereo not given in full) [Phenethicillin Potassium]", "Mahalanobis distance": "inactive: 2.12"}
{"smiles": "COc1ccc(-c2cc(C(F)F)nn2-c2ccc(S(N)(=O)=O)cc2)cc1F", "note": "[Deracoxib]", "Mahalanobis distance": "active: 2.7"}
{"smiles": "CN(C)[C@@H]1C(O)=C(C(N)=O)C(=O)[C@@]2(O)C(O)=C3C(=O)c4c(O)ccc(Cl)c4[C@@H](O)[C@H]3C[C@@H]12", "note": "[Demeclocycline Hydrochloride]", "Mahalanobis distance": "inactive: 1.63"}
{"smiles": "NC(N)=O", "Mahalanobis distance": "active: 2.66"}
{"smiles": "CCOc1ccccc1OCCNC(C)Cc1ccc(OC)c(S(N)(=O)=O)c1", "note": "(stereo not given) [Amsulosin]", "Mahalanobis distance": "inactive: 2.16"}
{"smiles": "CC1=C(CC(=O)O)c2cc(F)ccc2/C1=C\\c1ccc([S+](C)[O-])cc1", "note": "(stereo not given) [Sulindac]", "Mahalanobis distance": "inactive: 1.44"}
{"smiles": "CCCCC(=O)O[C@]1(C(=O)CO)CC[C@H]2[C@@H]3CCC4=CC(=O)CC[C@]4(C)[C@H]3[C@@H](O)C[C@@]21C", "note": "[Hydrocortisone Valerate]", "Mahalanobis distance": "inactive: 1.7"}
{"smiles": "CCc1cccc2c3c([nH]c12)C(CC)(CC(=O)O)OCC3", "note": "(stereo not given) [Etodolac]", "Mahalanobis distance": "inactive: 1.4"}
{"smiles": "Cc1noc(NS(=O)(=O)c2ccc(N)cc2)c1C", "note": "[Sulfisoxazole]", "Mahalanobis distance": "inactive: 1.98"}
{"smiles": "C[C@]12CC[C@@H]3c4ccc(O)cc4CC[C@H]3[C@@H]1C[C@@H](O)[C@@H]2O", "note": "[Estriol]", "Mahalanobis distance": "inactive: 1.22"}
{"smiles": "Cn1nnnc1SCC1=C(C(=O)O)N2C(=O)[C@@H](NC(=O)[C@H](OC=O)c3ccccc3)[C@H]2SC1", "note": "[Cefamandole Nafate]", "Mahalanobis distance": "inactive: 2.16"}
{"smiles": "CCCCC(CC)CN=C(N)N=C(N)NCCCCCCNC(N)=NC(N)=NCC(CC)CCCC", "note": "(stereo not given) [Alexidine Hydrochloride]", "Mahalanobis distance": "inactive: 2.11"}
{"smiles": "CC(=O)Oc1c(C)c(C)c2c(c1C)CCC(C)(CCCC(C)CCCC(C)CCCC(C)C)O2", "note": "(stereo not drawn) [Alpha-tochopheryl Acetate]", "Mahalanobis distance": "inactive: 1.68"}
{"smiles": "C=CC1=C(C(=O)O)N2C(=O)[C@@H](NC(=O)/C(=N\\OCC(=O)O)c3csc(N)n3)[C@H]2SC1", "note": "[Cefixime]", "Mahalanobis distance": "inactive: 2.4"}
{"smiles": "OCCOCCN1CCN(C(c2ccccc2)c2ccc(Cl)cc2)CC1", "note": "(stereo not given) [Hydroxyzine]", "Mahalanobis distance": "active: 3.07"}
{"smiles": "CC(C)COC(=O)c1ccc(N)cc1", "note": "[Isobutamben]", "Mahalanobis distance": "active: 4.67"}
{"smiles": "Cc1ccccc1N1C(=O)c2cc(S(N)(=O)=O)c(Cl)cc2NC1C", "note": "(stereo not given) [Metolazone]", "Mahalanobis distance": "inactive: 1.84"}
{"smiles": "Cc1cc(-n2c(=O)[nH]c(=O)n(C)c2=O)ccc1Oc1ccc(SC(F)(F)F)cc1", "note": "[Toltrazuril]", "Mahalanobis distance": "active: 3.15"}
{"smiles": "O=NN(CCCl)C(=O)NC1CCCCC1", "note": "[Lomustine]", "Mahalanobis distance": "active: 7.24"}
{"smiles": "COc1ccccc1O", "note": "[Guaiacol]", "Mahalanobis distance": "inactive: 1.86"}
{"smiles": "CCCCC(C)(O)C/C=C/[C@H]1[C@H](O)CC(=O)[C@@H]1CCCCCCC(=O)OC", "note": "(mixture of isomers) [Misoprostol]", "Mahalanobis distance": "inactive: 2.12"}
{"smiles": "COc1cnc(NS(=O)(=O)c2ccc(N)cc2)nc1", "note": "[Sulfameter]", "Mahalanobis distance": "inactive: 1.99"}
{"smiles": "O=C(O)CCC(=O)Nc1ccc(S(=O)(=O)Nc2nccs2)cc1", "note": "[Succinylsulfathiazole]", "Mahalanobis distance": "inactive: 1.52"}
{"smiles": "CN(C)[C@@H]1C(O)=C(C(N)=O)C(=O)[C@@]2(O)C(O)=C3C(=O)c4c(O)ccc(Cl)c4[C@@](C)(O)[C@H]3C[C@@H]12", "note": "[Chlortetracycline]", "Mahalanobis distance": "active: 2.9"}
{"smiles": "O=C1OC2(c3ccc(O)cc3Oc3cc(O)ccc32)c2ccccc21", "note": "[Fluorescein]", "Mahalanobis distance": "inactive: 2.43"}
{"smiles": "CN1[C@@H](CC(=O)c2ccccc2)CCC[C@H]1C[C@H](O)c1ccccc1", "note": "[Lobeline]", "Mahalanobis distance": "inactive: 2.18"}
{"smiles": "OC[C@@H](O)[C@@H](O[C@@H]1O[C@H](CO)[C@H](O)[C@H](O)[C@H]1O)[C@H](O)[C@@H](O)CO", "note": "[Lacitol]", "Mahalanobis distance": "inactive: 1.86"}
{"smiles": "OC[C@@H](O)[C@@H](O[C@@H]1O[C@H](CO)[C@H](O)[C@H](O)[C@H]1O)[C@H](O)[C@@H](O)CO", "note": "[D-lactitol Monohydrate]", "Mahalanobis distance": "inactive: 1.71"}
